This is one part of the list. Repeats are few or missing, and single values can be far off.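 Cells were imaged in 1,536-well plates, and nuclei stained with an antibody against cleaved PARP were counted against all DNA-stained nuclei to give the apoptosis fraction. Screening doses were chosen to leave most cells alive, and resting and induced cleaved-PARP levels differ strongly between cell lines.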
Columns and labels:
Experiment in all cases: cleaved PARP positive nuclei fraction relative to DMSO control; melanoma cells; higher = more apoptosis
Details in all cases: library dose: low library concentration; 72 h
[1] = tested on: WM115
[2] = tested on: WM1716
[3] = tested on: WM1745
[4] = tested on: WM3526
[5] = tested on: WM3619
[6] = tested on: WM451Lu

Row | SMILES | cleaved PARP positive nuclei fraction [1] | cleaved PARP positive nuclei fraction [2] | cleaved PARP positive nuclei fraction [3] | cleaved PARP positive nuclei fraction [4] | cleaved PARP positive nuclei fraction [5] | cleaved PARP positive nuclei fraction [6]
1 | Cc1cc(Nc2cc(N3CCN(C)CC3)nc(Sc3ccc(NC(=O)C4CC4)cc3)n2)n[nH]1 [Tozasertib] + COc1ccc(Cl)c(Nc2nc3ccccc3nc2NS(=O)(=O)c2cccc(NC(=O)C(C)(C)N)c2)c1 [XL147] (first compound 0.006 µM, partner dose 0.8 µM) | 111% | 76.9% | 110% | 192% | 94.2% | 107%
2 | COc1cc([C@@H]2c3cc4c(cc3[C@@H](O[C@@H]3O[C@@H]5CO[C@@H](C)O[C@H]5[C@H](O)[C@H]3O)[C@H]3COC(=O)[C@H]23)OCO4)cc(OC)c1O [etoposide] + C[C@@H](Oc1cc(-c2cnn(C3CCNCC3)c2)cnc1N)c1c(Cl)ccc(F)c1Cl [Crizotinib] (first compound 0.02 µM, partner dose 0.2 µM) | 77.1% | 34.7% | 94.4% | 68.1% | 95.6% | 18.8%
3 | O=C(/C=C/c1cccnc1)NCCCCC1CCN(C(=O)c2ccccc2)CC1 + NCC(=O)Nc1ccc(-n2nc(C(F)(F)F)cc2-c2ccc3c(ccc4ccccc43)c2)cc1 [OSU03012] (first compound 0.01 µM, partner dose 1 µM) | 179% | 124% | 88.2% | 114% | 104% | 48.7%
4 | Cc1cc(Nc2cc(N3CCN(C)CC3)nc(Sc3ccc(NC(=O)C4CC4)cc3)n2)n[nH]1 [Tozasertib] + O=C(/C=C/c1cccnc1)NCCCCC1CCN(C(=O)c2ccccc2)CC1 [FK866] (first compound 0.006 µM, partner dose 0.01 µM) | 223% | 136% | 106% | 214% | 104% | 82.6%
5 | O=C(/C=C/c1cccnc1)NCCCCC1CCN(C(=O)c2ccccc2)CC1 + C=CCn1c(=O)c2cnc(Nc3ccc(N4CCN(C)CC4)cc3)nc2n1-c1cccc(C(C)(C)O)n1 [MK1775] (first compound 0.01 µM, partner dose 0.02 µM) | 127% | 26.6% | 111% | 48.4% | 137% | 216%
6 | N#CC[C@H](C1CCCC1)n1cc(-c2ncnc3[nH]ccc23)cn1 [ruxolitinib] + C#Cc1cccc(Nc2ncnc3cc(OCCOC)c(OCCOC)cc23)c1 [erlotinib] (first compound 1 µM, partner dose 0.8 µM) | 135% | 91.8% | 283% | 460% | 92.9% | 99%
7 | Cc1cn(-c2cc(NC(=O)c3ccc(C)c(Nc4nccc(-c5cccnc5)n4)c3)cc(C(F)(F)F)c2)cn1 [nilotinib] + CN(NC(=O)CC(=O)NN(C)C(=S)c1ccccc1)C(=S)c1ccccc1 [STA4783] (first compound 0.2 µM, partner dose 0.006 µM) | 107% | 176% | 196% | 125% | 155% | 69%
8 | CCCCCCCCCCCCCCCCCCOP(=O)([O-])OC1CC[N+](C)(C)CC1 [Perifosine] + CC(C)CCN1c2nc(Nc3cc(F)c(O)c(F)c3)ncc2N(C)C(=O)C1C [BID1870] (first compound 0.4 µM, partner dose 0.2 µM) | 138% | 25.1% | 83.8% | 93.1% | 88.9% | 42.7%
9 | O=c1[nH]nc(Sc2ncc([N+](=O)[O-])s2)n1-c1ccc2c(c1)OCCO2 + Cc1ccc(NC(=O)c2cccc(N(C)C)c2)cc1NC(=O)c1ccc(O)cc1 [ZM336372] (first compound 0.2 µM, partner dose 2 µM) | 74.9% | 81.1% | 94.2% | 115% | 113% | 188%
10 | Cc1cc(Nc2cc(N3CCN(C)CC3)nc(Sc3ccc(NC(=O)C4CC4)cc3)n2)n[nH]1 [Tozasertib] + Nc1ccn([C@@H]2O[C@H](CO)[C@@H](O)C2(F)F)c(=O)n1 [gemcitabine] (first compound 0.006 µM, partner dose 0.0004 µM) | 105% | 68.5% | 162% | 41.5% | 114% | 77.4%
11 | O=C(Nc1cc(C(F)(F)F)cc(C(F)(F)F)c1)c1cc(Cl)ccc1O + COc1ccc(COc2ccc(Cc3cnc(N)nc3N)cc2OC)cc1 [GW2580] (first compound 0.016 µM, partner dose 1 µM) | 74% | 42.9% | 72.2% | 69.8% | 105% | 79.6%

From the supplement of paper PMC4604168 (melanoma cell lines)
